The supplement of paper PMC4604168 (melanoma cell lines)
The other results are listed elsewhere or left out. Single values are uncertain, as repeats are few or missing.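 Imaging used 1,536-well plates; nuclei positive for cleaved PARP by antibody were divided by total DNA-stained nuclei to yield the apoptosis fraction. Doses for screening kept most cells viable, and cell lines differ markedly in resting and induced cleaved-PARP levels.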

system: MZ2-MEL; test: cleaved PARP positive nuclei fraction relative to DMSO control; melanoma cells; higher = more apoptosis; details: library dose: low library concentration; 72 h

Row | SMILES | cleaved PARP positive nuclei fraction [%]
1 | CNC(=O)c1cc(Oc2ccc(NC(=O)Nc3ccc(Cl)c(C(F)(F)F)c3)cc2)ccn1 [sorafenib] + Cc1ccc(NC(=O)c2cccc(N(C)C)c2)cc1NC(=O)c1ccc(O)cc1 [ZM336372] (first compound 0.4 µM, partner dose 2 µM) | 137
2 | C[C@@H](Oc1cc(-c2cnn(C3CCNCC3)c2)cnc1N)c1c(Cl)ccc(F)c1Cl [Crizotinib] + CCN(CC)CCCCNc1ncc2cc(-c3cc(OC)cc(OC)c3)c(NC(=O)NC(C)(C)C)nc2n1 [PD173074] (first compound 0.2 µM, partner dose 0.1 µM) | 72.3
3 | Nc1ncn([C@H]2C[C@H](O)[C@@H](CO)O2)c(=O)n1 [decitabine] + O=c1cc(-c2cccc3c2Sc2ccccc2S3)oc(N2CCOCC2)c1 [KU55933] (first compound 0.1 µM, partner dose 1 µM) | 54.1
4 | O=C(O)c1ccc2c(c1)nc(Nc1cccc(Cl)c1)c1ccncc12 + O=C(O)c1ccc(-c2c[nH]c3ncc(-c4ccccc4)cc23)cc1C1CCCC1 [GSK650394] (first compound 0.4 µM, partner dose 0.16 µM) | 76.4
5 | Cc1cc(Nc2cc(N3CCN(C)CC3)nc(/C=C/c3ccccc3)n2)n[nH]1 + C=CCn1c(=O)c2cnc(Nc3ccc(N4CCN(C)CC4)cc3)nc2n1-c1cccc(C(C)(C)O)n1 [MK1775] (first compound 0.04 µM, partner dose 0.02 µM) | 70.2
6 | Nc1ccn([C@@H]2O[C@H](CO)[C@@H](O)C2(F)F)c(=O)n1 [gemcitabine] + O=C(Nc1cccc(Cl)c1)Nc1ncc(CCNc2ncnc3ccsc23)s1 [SNS314] (first compound 0.0004 µM, partner dose 0.0008 µM) | 186
7 | C[C@@H](Oc1cc(-c2cnn(C3CCNCC3)c2)cnc1N)c1c(Cl)ccc(F)c1Cl [Crizotinib] + CO[C@@H]1[C@H](N(C)C(=O)c2ccccc2)C[C@H]2O[C@]1(C)n1c3ccccc3c3c4c(c5c6ccccc6n2c5c31)C(=O)NC4 [Midostaurin] (first compound 0.2 µM, partner dose 0.08 µM) | 89.4
8 | CC(C)C[C@H](NC(=O)[C@H](Cc1ccccc1)NC(=O)c1cnccn1)B(O)O [Bortezomib] + COc1ccc2c(c1)CCC1C2CCC2(C)C(NCCCCCCN3C(=O)C=CC3=O)CCC12 [U73122] (first compound 0.001 µM, partner dose 0.4 µM) | 113
9 | Nc1ccn([C@@H]2O[C@H](CO)[C@@H](O)C2(F)F)c(=O)n1 [gemcitabine] + OCCn1cc(-c2cnc3nnn(Cc4ccc5ncccc5c4)c3n2)cn1 [PF04217903] (first compound 0.0004 µM, partner dose 1 µM) | 133
10 | CNC(=O)c1cc(Oc2ccc(NC(=O)Nc3ccc(Cl)c(C(F)(F)F)c3)cc2)ccn1 [sorafenib] + CO[C@@H]1[C@H](N(C)C(=O)c2ccccc2)C[C@H]2O[C@]1(C)n1c3ccccc3c3c4c(c5c6ccccc6n2c5c31)C(=O)NC4 [Midostaurin] (first compound 0.4 µM, partner dose 0.08 µM) | 56.8
11 | O=C(O)[C@@H]1[O][Sb](=[O])([O][Sb]2(=[O])[O][C@H]([C@H](O)CO)[C@H](O)[C@H](C(=O)O)[O]2)[O][C@H]([C@H](O)CO)[C@@H]1O (stereo partly drawn) [stibogluconate] + Cc1ccc(NC(=O)c2cccc(N(C)C)c2)cc1NC(=O)c1ccc(O)cc1 [ZM336372] (first compound 2 µM, partner dose 2 µM) | 105
12 | CN1CCN(c2ccc3nc(-c4c(N)c5c(F)cccc5[nH]c4=O)[nH]c3c2)CC1 [Dovitinib] + COc1cc2c(Oc3ccc4[nH]c(C)cc4c3F)ncnc2cc1OCCCN1CCCC1 [cediranib] (first compound 0.1 µM, partner dose 0.4 µM) | 192
13 | CC(C)C[C@H](NC(=O)[C@H](Cc1ccccc1)NC(=O)c1cnccn1)B(O)O [Bortezomib] + CC(C)CCN1c2nc(Nc3cc(F)c(O)c(F)c3)ncc2N(C)C(=O)C1C [BID1870] (first compound 0.001 µM, partner dose 0.2 µM) | 151

2 entries from above, reformatted.
Row	SMILES	cleaved PARP positive nuclei fraction [%]
2	C[C@@H](Oc1cc(-c2cnn(C3CCNCC3)c2)cnc1N)c1c(Cl)ccc(F)c1Cl [Crizotinib] + CCN(CC)CCCCNc1ncc2cc(-c3cc(OC)cc(OC)c3)c(NC(=O)NC(C)(C)C)nc2n1 [PD173074] (first compound 0.2 µM, partner dose 0.1 µM)	72.3
9	Nc1ccn([C@@H]2O[C@H](CO)[C@@H](O)C2(F)F)c(=O)n1 [gemcitabine] + OCCn1cc(-c2cnc3nnn(Cc4ccc5ncccc5c4)c3n2)cn1 [PF04217903] (first compound 0.0004 µM, partner dose 1 µM)	133
